Assay: peptide synthesis
Conditions: conjugation step, one disulfide bridge, sequence written open

Question: Which conjugation yield does the source give for GFCDGFYACYMDV-OH here?
Answer: 7-10%
